Measurements taken from US8821862B2, “Soluble β-N-acetylglucosaminidase based antibiofilm compositions and uses thereof” (Kane Biotech Inc., priority 2002, dated 2014).
At least one structure is not confirmed: it was looked up by name or label, or the drawing left a doubt.

Test system: A. actinomycetemcomitans CU1000 biofilms
Test: Biofilm killing assay
Format: cell-based
Conditions: CPC alone, 0.02%, 5 min; versus mock-treated controls
Description: Biofilm Killing Assay. […] Tubes were vortexed for 10 s, and 20 μL aliquots of the detached biofilms were transferred to the wells of a flat-bottomed 96-well microtiter plate containing 180 μL of fresh broth. Five serial dilutions (20 μL into 180 μL) were performed directly into adjacent wells. Plates were incubated for 48 h and then rinsed and stained with crystal violet as described above. Wells containing 30-300 biofilm colonies were photographed under a dissecting microscope and counted. In some assays, biofilms were pre-treated with 1 mL of DispersinB™ (20 μg/mL in PBS) for 5 min prior to the SDS treatment. In these assays, a 100 μL quantity of SDS in PBS (at 10 times the test concentration) was added directly to the DispersinB™-treated cell suspension and mixed. After 5 min, tubes were vortexed briefly, and 20-μL aliquots of culture were enumerated as described above. Killing assays were performed in duplicate tubes on at least 5 separate occasions, with similar results.

Question: `CCCCCCCCCCCCCCCC[n+]1ccccc1` [CPC, cetylpyridinium chloride] was tested. Which “reduction in the number of CFU/tube” value did it give?
Answer: little or no reduction
